Assay results published in article PMC6347521 (Current protocols in toxicology, 2018).
Where two headings read alike, the source gives them in different places.

Legend:
[1] = test system: Hep3B human hepatoma cell line; assay: cells; assay type: cell-based; settings: 48 h, read-out: IC50 Hoechst
[2] = test system: Hep3B human hepatoma cell line; assay: cells; assay type: cell-based; settings: 48 h, read-out: IC50 mBCl
[3] = test system: Hep3B human hepatoma cell line; assay: cells; assay type: cell-based; settings: 48 h, read-out: IC50 Calcein AM
[4] = test system: 2D; settings: read-out: IC50 2D (literature review); cited from earlier work

CC/C(=C(\c1ccccc1)c1ccc(OCCN(C)C)cc1)c1ccccc1 [Tamoxifen]
IC50 [1]: 102 ± 6.2 µM
IC50 [2]: 83 ± 18.5 µM
IC50 [3]: 57 ± 4.3 µM
IC50 [4]: 45 µM
